# Primary screen of a compound library

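Phenotypic screen: M. tuberculosis growth, glucose 7H9 medium, 3 days; the read-out is not stated. Concentration: 50 µM. Higher reads as more growth inhibition (inferred: compounds with an IC50 in retests scored well above the rest). Size under these conditions: about 69,000 compounds, about 760 of them at 50% or above in at least one test.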

Values are the deposited “Percent Effect”, in %. The record does not define 0% and 100%; most values in the screen are far below 50% and negative numbers occur (in some assays of this library far below -100). Compounds were drawn at random from those tested, without regard to their results. Two or more numbers in one place are separate tests of the same structure; such repeats can differ widely.

compound,effect
CCN(CC)C(=O)CCCNC(=O)Cc1nc(-c2ccco2)oc1C,-16.27
[H][C@]12CCN(C(=O)c3ccco3)[C@@]1([H])CC[C@@H](COCC1CCOCC1)O2,0.0942 & -2.083
COc1ccccc1C(C)Nc1ncc(C(N)=O)cc1Cl (centres undefined),-1.129
Cn1cnnc1CCC(=O)N1CCCC(OCc2cccnc2)C1 (centres undefined),-1.323
Cc1nn(C)c(C)c1C1CCCN1C(=O)CCCn1cccn1 (centres undefined),-1.56
Cc1cc(C)c(C(=O)N2CCN(c3ncccc3C#N)CC2)c(=O)[nH]1,8.46 & 10.33
CC(CCNC(=O)NCCc1ccc(S(N)(=O)=O)cc1)c1ccccc1 (centres undefined),7.038 & 7.065
COCCNC(=O)[C@H]1C[C@@](CC(C)C)(C(=O)O)N(C)[C@H]1c1cccnc1,14.36
CCCc1n[nH]c(C2CN(C(=O)c3cccc4[nH]ncc34)CCO2)n1 (centres undefined),19.12
O=C(Cn1cnc2ccsc2c1=O)NCCCc1nnc2ccccn12,-17.55
[H][C@]12CC[C@]([H])(CN(C(C)=O)C1)N(S(=O)(=O)c1cc(F)ccc1C)C2,-7.304
Nc1nc(N)c2c(n1)OC1(CCCN(Cc3nccs3)CC1)C2 (centres undefined),-24.97
CC(C)OCc1noc(C2CCOC2)n1 (centres undefined),-19.13
O=C(OCc1cccs1)c1cccc(C(=O)N2CCCC2)n1,-4.344
Cc1c(Br)cccc1S(=O)(=O)NCc1ccnn1C,-4.999
Cc1cn(-c2ccccc2)nc1NS(=O)(=O)c1ccc(C(=O)O)cc1F,6.339
CC(C)[C@H](N)C(=O)N1CCCC(C2=Nc3ccccc3S(=O)(=O)N2)C1.Cl (some centres undefined),10.78
Cc1cc(C)n(CCN(C)c2ccc(-c3nc(C4CC4)no3)cn2)n1,-6.747 & 12.94
Cn1cc(CC2CC(=O)N(Cc3ccccc3OC(F)F)C2=O)cn1 (centres undefined),-2.803
CC(C)Nc1ncnc2c1CCNCC2,-15.41 & 4.797
CCn1cc(C(=O)Nc2ccccc2C(=O)OC)cn1,3.944 & 18.69
CCCS(=O)(=O)N1CCC2(CC(=O)N(c3cnn(C)c3)C2)C1 (centres undefined),-16.66 & -3.904
CCc1nccn1C1CCCN(C(=O)c2cnc[nH]2)C1 (centres undefined),-35.01
CCCn1ccnc1CN1CCN(C2CCOCC2)CC(C(N)=O)C1 (centres undefined),-21.91
CCc1cc(CN(C)C(=O)c2cc(=O)[nH]c(=O)[nH]2)on1,18.8
Cc1cc(CN2CCCC(C)(CO)C2)ccc1F (centres undefined),3.105
[H][C@@]12CCCN1C[C@@H](Cc1ccccc1)N(Cc1cnn(CCC)c1C)C2,14.82
CCN(Cc1cnn(CC)c1)C(=O)CN1C(=O)CCc2ccccc21,-22.58
CCn1nccc1C(=O)Nc1nc(C)c(C(C)=O)s1,4.934 & 7.487
COCC(=O)N1CCCC2(COCCN(CCN(C)C)C2)C1.O=C(O)C(F)(F)F.O=C(O)C(F)(F)F (centres undefined),6.194 & -9.595
O=C(O)C(F)(F)F.O=C(O)C(F)(F)F.O=C1CCC2(CCCN(Cc3nccs3)C2)N1CC1CC1 (centres undefined),-4.812
[H][C@@]12CNC[C@@]1([H])N(CC1CC1)C(=O)CO2,-14.27
O=C1CC(c2cccnc2)c2c(c(C(=O)O)cn2-c2ccccc2)N1 (centres undefined),-10.65
CC(C)NC(=O)NCc1nnc2n1C(C(=O)N(C)C)CC2 (centres undefined),13.48
Cn1cnnc1CC1CCN(Cc2nn(C)c3cccc(Cl)c23)CC1,1.549 & -47.05
CCC(NC(=O)CNCC(F)(F)F)c1cc(F)ccc1F (centres undefined),33.28
Cc1ncsc1C(=O)N1CCn2nc(CN3CCSCC3)cc2C1,5.603
COc1cccc(CCCn2cnnc2[S+](C)[O-])c1 (centres undefined),23.32
COc1c(CNC2(c3ccc(Cl)cc3)CCC2)c(C)nn1C,4.238
Cc1ccc(N2CCCC(NCc3ccc(Cl)o3)C2)nn1 (centres undefined),-5.124
CC(C)CCN1CC[C@H](c2nnc(Cc3c[nH]c4ccccc34)o2)C1,15.24 & 9.334
[H][C@]12CC[C@]([H])(CN(Cc3ccc(OC)cc3)C1)N(S(=O)(=O)C1CC1)C2,-8.842
Cc1ccccc1OCCN(C)C(=O)NC(C)c1nncn1C (centres undefined),7.914
Cn1cccc1C(CNC(=O)COc1ccc(Cl)cc1Cl)N1CCCC1 (centres undefined),21.52 & 6.082
Cc1cnn(CC(C)NCc2csc(-c3cnn(C)c3)n2)c1 (centres undefined),-49.6
C=Cc1cccc(CN(Cc2cnn(C)c2)C2CC2)c1,-12.07

For reference, 5 entries once more:

* CC(C)OCc1noc(C2CCOC2)n1 (centres undefined) : -19.13%
* Cc1c(Br)cccc1S(=O)(=O)NCc1ccnn1C : -4.999%
* Cc1cc(CN2CCCC(C)(CO)C2)ccc1F (centres undefined) : 3.105%
* CCCS(=O)(=O)N1CCC2(CC(=O)N(c3cnn(C)c3)C2)C1 (centres undefined) : -16.66% & -3.904%
* Cn1cccc1C(CNC(=O)COc1ccc(Cl)cc1Cl)N1CCCC1 (centres undefined) : 21.52% & 6.082%

Source: ChEMBL document CHEMBL3988442, “University of Dundee, Small-Polar-MMV Screening Library” (2021).